The other results are listed elsewhere or left out.
Compound: Cc1cc(ccc1-c1ccccc1)C(=O)N1CCCN(CC1)C(=O)CCl [compound 10]
Test: probe-labelled cysteine peptide fold change vs DMSO (competition) (log2 fold change); higher = less target engagement (more negative = stronger competition)
Settings: THP-1, incubation time: 4 h
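Note: competitive profiling in live THP-1 cells: cysteine peptides tagged with an iodoacetamide desthiobiotin (IA-DTB) probe, intensity after compound treatment relative to DMSO-treated cells.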

Protein sequences, listed by entry. Tags and fused reporters are not part of them. Lines headed by an entry give the natural chain unless they say otherwise; changes in a name come on top.
UniProt Q9ULK4: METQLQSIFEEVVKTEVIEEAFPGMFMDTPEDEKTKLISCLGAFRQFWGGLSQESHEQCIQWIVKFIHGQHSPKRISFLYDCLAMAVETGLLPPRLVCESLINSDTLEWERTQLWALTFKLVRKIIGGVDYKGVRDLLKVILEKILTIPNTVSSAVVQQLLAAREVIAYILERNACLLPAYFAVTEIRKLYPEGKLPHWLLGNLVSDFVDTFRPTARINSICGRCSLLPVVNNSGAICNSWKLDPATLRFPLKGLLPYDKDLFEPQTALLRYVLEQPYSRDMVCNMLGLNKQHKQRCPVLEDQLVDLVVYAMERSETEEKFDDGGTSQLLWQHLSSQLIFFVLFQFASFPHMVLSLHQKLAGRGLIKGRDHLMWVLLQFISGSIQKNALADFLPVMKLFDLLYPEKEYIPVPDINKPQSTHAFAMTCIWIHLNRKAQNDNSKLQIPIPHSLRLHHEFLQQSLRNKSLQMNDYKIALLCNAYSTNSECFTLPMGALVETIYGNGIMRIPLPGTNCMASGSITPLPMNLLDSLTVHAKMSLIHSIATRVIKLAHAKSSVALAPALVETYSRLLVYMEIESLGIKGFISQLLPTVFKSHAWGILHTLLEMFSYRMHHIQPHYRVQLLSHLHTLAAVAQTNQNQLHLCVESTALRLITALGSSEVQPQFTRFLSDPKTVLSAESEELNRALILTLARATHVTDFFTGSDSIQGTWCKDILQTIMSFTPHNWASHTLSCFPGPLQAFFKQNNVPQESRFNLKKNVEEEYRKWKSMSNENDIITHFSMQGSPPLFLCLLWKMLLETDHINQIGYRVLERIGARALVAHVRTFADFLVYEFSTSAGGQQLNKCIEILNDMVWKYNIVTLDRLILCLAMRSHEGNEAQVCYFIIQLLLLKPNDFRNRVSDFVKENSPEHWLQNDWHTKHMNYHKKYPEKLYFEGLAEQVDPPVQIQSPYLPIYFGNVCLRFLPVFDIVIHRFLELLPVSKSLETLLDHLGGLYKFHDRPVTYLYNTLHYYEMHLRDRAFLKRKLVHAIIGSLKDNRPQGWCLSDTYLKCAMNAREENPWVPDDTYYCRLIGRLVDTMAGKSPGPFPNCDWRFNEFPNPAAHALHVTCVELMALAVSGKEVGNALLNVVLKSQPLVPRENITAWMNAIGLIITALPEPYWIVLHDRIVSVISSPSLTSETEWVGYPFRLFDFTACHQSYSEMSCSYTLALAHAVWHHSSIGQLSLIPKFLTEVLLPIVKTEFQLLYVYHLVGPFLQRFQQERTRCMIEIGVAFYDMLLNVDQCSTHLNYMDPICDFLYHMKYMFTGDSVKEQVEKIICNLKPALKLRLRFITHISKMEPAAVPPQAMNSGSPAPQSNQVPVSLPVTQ
UniProt Q8N6R0: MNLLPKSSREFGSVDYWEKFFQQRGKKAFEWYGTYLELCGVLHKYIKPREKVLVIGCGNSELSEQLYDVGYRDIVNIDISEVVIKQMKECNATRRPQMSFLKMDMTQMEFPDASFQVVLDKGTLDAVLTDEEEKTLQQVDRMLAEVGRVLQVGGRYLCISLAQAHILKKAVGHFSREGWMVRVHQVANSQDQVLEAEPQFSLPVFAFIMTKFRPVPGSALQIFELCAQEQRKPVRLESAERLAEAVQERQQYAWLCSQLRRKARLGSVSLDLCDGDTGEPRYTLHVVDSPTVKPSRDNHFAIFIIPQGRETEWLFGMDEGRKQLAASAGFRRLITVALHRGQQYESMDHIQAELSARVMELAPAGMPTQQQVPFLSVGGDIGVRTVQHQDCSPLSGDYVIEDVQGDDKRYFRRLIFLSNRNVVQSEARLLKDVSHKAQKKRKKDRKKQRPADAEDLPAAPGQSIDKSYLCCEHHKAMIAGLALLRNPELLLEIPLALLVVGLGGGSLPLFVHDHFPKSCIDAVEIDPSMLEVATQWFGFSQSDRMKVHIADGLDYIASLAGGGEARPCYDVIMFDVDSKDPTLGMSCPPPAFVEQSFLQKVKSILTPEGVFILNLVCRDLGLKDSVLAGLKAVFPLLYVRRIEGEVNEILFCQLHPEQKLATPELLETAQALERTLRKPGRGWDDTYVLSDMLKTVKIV
UniProt Q9BTE3: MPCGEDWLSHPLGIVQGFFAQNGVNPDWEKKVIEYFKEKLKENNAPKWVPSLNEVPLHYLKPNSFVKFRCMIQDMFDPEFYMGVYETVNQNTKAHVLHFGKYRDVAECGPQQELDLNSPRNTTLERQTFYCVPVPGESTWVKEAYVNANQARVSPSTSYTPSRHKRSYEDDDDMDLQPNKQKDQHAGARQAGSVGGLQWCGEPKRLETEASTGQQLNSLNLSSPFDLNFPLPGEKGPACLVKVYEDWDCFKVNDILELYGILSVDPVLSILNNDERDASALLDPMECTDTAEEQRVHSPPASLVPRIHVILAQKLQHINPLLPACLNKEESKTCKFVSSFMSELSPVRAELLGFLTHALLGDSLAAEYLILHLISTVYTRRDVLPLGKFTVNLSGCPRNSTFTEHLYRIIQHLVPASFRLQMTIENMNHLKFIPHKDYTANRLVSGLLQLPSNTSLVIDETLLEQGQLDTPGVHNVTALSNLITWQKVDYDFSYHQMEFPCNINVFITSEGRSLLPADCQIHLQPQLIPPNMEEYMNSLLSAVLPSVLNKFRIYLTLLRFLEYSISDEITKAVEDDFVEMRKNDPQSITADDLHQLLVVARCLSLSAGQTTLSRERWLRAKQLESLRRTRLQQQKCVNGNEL
UniProt Q8N635: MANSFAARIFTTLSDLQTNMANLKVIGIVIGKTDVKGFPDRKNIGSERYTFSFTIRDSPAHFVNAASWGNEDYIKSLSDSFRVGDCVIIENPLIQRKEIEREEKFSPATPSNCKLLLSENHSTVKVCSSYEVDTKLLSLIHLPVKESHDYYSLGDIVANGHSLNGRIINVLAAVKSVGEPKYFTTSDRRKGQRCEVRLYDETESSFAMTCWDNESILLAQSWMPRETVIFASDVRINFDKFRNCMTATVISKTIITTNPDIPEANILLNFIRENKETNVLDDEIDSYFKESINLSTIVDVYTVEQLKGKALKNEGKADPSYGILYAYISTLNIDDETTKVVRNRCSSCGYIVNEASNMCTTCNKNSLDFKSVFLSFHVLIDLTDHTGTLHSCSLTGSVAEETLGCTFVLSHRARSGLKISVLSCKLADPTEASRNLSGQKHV
UniProt P49736, whole entry, looked up: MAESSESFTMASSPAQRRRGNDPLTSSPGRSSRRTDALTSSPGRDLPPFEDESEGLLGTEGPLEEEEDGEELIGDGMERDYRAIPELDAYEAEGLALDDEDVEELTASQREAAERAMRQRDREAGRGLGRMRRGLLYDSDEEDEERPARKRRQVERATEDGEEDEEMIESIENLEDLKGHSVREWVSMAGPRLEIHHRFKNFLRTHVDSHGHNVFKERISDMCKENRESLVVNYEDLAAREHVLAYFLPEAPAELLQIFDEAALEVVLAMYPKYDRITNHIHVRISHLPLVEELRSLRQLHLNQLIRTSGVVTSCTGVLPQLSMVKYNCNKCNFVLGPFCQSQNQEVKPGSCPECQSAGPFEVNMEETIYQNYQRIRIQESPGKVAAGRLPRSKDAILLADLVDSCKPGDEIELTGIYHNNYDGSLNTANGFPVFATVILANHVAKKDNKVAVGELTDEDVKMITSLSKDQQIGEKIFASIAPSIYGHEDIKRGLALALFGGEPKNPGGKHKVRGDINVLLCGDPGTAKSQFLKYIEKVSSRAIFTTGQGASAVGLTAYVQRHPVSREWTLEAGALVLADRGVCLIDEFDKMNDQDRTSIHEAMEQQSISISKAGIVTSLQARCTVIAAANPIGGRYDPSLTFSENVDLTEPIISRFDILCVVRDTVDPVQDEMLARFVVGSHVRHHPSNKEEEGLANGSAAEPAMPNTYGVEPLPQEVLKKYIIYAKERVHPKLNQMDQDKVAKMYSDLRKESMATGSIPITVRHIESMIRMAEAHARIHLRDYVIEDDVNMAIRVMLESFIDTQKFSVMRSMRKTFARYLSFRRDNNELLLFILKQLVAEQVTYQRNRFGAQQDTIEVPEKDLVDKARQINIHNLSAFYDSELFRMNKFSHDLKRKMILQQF
UniProt Q9UJA3: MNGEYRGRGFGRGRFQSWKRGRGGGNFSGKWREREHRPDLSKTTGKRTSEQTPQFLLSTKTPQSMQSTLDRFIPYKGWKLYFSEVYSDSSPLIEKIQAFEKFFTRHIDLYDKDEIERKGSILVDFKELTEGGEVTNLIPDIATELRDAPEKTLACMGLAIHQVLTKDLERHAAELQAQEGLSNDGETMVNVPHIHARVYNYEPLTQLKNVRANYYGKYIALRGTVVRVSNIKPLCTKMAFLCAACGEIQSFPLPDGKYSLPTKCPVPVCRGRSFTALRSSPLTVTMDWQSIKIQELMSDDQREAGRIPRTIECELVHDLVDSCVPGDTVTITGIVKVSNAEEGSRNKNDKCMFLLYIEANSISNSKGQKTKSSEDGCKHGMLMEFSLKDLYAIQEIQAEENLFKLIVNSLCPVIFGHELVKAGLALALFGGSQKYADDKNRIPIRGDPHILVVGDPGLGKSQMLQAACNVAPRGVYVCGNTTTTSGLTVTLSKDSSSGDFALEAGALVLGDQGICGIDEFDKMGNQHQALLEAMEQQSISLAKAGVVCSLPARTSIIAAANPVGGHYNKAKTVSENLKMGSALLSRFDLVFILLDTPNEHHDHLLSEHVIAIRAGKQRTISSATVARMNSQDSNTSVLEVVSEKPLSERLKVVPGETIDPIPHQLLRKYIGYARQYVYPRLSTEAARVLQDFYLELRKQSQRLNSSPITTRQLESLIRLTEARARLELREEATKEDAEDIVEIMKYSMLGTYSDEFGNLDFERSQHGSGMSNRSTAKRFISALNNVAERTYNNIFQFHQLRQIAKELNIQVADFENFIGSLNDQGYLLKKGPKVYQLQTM
UniProt O95568: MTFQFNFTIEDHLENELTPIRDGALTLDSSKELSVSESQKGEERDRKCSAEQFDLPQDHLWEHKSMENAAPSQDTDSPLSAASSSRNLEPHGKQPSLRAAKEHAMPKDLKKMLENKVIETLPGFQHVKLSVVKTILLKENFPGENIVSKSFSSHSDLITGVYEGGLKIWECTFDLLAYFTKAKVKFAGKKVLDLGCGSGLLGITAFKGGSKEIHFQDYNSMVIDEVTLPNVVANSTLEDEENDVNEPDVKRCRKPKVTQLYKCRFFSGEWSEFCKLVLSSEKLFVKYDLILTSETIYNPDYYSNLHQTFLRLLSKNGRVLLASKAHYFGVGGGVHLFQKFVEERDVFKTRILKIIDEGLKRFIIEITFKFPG
UniProt O43513: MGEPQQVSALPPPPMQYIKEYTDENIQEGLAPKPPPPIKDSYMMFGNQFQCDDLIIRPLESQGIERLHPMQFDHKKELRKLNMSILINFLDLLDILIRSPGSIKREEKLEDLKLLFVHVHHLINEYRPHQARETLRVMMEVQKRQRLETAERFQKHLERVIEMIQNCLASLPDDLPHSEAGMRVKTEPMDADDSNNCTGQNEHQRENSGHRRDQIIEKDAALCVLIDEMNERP
UniProt P50579: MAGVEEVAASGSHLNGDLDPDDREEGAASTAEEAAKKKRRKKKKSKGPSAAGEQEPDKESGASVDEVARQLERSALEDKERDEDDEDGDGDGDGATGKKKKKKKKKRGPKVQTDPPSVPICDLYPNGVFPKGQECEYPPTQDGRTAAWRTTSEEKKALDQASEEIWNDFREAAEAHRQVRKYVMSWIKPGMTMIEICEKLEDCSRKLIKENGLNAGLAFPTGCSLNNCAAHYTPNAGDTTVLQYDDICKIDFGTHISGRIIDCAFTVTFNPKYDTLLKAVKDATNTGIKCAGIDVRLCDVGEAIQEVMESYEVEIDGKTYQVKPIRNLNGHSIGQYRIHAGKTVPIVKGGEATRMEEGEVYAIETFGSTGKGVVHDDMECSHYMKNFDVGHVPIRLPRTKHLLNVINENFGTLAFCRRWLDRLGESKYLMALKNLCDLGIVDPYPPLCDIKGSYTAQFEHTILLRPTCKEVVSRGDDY
UniProt P40926: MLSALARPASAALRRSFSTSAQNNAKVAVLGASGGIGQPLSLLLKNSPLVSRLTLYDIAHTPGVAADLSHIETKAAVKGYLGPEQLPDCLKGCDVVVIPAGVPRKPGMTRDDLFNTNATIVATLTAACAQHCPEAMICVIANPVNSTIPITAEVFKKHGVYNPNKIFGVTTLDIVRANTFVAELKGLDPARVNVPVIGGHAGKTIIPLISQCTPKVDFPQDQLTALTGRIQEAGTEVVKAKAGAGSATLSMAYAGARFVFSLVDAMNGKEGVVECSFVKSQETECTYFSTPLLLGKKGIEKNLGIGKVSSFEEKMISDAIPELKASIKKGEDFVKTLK
UniProt Q9NRN9: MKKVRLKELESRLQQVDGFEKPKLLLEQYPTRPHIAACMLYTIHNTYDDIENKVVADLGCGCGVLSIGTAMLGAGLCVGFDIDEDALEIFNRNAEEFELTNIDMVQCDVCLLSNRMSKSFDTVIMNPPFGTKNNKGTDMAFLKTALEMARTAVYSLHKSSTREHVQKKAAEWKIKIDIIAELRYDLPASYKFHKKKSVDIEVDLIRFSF

| Target | probe-labelled cysteine peptide fold change (10 µM) | probe-labelled cysteine peptide fold change (50 µM) |
| --- | --- | --- |
| MED23_Q9ULK4_712_ATHVTDFFTGSDSIQGTWCK (UniProt Q9ULK4) | 0.13 | 0.304 |
| METTL13_Q8N6R0_273_LGSVSLDLCDGDTGEPR (UniProt Q8N6R0) | -0.0221 | -0.00612 |
| MED1_Q15648_443_EDSPGLLQFEVCPLSESR (UniProt Q15648) | -0.458 | 0.192 |
| MCMBP_Q9BTE3_249_VYEDWDCFK (UniProt Q9BTE3) | -0.042 | -0.0294 |
| MEIOB_Q8N635_424_ISVLSCK (UniProt Q8N635) | -0.0433 | 0.071 |
| MCM2_P49736_315_TSGVVTSCTGVLPQLSMVK (UniProt P49736) | -0.0956 | 0.246 |
| MDN1_Q9NU22_57_DCTVLVGR (UniProt Q9NU22) | -0.0352 | 0.00173 |
| MCM8_Q9UJA3_411_LIVNSLCPVIFGHELVK (UniProt Q9UJA3) | 0.0771 | 0.349 |
| MCTS1_Q9ULC4_113_FVLSGANIMCPGLTSPGAK (UniProt Q9ULC4) | 0.0993 | 0.0141 |
| METTL18_O95568_196_VLDLGCGSGLLGITAFK (UniProt O95568) | 0.0108 | 0.194 |
| MED7_O43513_223_DAALCVLIDEMNERP (UniProt O43513) | -0.245 | 0.168 |
| METAP2_P50579_135_GQECEYPPTQDGR (UniProt P50579) | -0.455 | -0.196 |
| MDH2_P40926_285_SQETECTYFSTPLLLGKK (UniProt P40926) | -0.188 | -0.586 |
| METTL5_Q9NRN9_110_NAEEFELTNIDMVQCDVCLLSNR (UniProt Q9NRN9) | 0.33 | 0.0243 |

Source: the supplement of paper PMC12067093, “Discovery and optimisation of a covalent ligand for TRIM25 and its application to targeted protein ubiquitination” (Chemical Science, 2025)
